Library screen at single concentrations

Sequences of proteins named here, by UniProt entry; tags and fusion partners are left off. Residues count along the entry.
UniProt A4I591, 1-473: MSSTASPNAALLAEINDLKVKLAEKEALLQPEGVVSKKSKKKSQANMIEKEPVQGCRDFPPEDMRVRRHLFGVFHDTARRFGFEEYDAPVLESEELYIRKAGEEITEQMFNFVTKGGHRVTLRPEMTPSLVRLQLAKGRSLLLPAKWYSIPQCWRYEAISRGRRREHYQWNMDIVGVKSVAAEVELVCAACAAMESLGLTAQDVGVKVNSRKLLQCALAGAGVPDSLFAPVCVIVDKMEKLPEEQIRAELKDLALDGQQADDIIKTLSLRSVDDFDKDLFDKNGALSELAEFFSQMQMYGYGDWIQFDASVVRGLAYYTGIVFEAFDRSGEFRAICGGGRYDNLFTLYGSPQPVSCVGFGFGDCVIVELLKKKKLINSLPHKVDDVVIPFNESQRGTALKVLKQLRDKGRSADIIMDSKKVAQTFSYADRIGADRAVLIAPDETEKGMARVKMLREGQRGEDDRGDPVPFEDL
UniProt I6X8D2, whole entry: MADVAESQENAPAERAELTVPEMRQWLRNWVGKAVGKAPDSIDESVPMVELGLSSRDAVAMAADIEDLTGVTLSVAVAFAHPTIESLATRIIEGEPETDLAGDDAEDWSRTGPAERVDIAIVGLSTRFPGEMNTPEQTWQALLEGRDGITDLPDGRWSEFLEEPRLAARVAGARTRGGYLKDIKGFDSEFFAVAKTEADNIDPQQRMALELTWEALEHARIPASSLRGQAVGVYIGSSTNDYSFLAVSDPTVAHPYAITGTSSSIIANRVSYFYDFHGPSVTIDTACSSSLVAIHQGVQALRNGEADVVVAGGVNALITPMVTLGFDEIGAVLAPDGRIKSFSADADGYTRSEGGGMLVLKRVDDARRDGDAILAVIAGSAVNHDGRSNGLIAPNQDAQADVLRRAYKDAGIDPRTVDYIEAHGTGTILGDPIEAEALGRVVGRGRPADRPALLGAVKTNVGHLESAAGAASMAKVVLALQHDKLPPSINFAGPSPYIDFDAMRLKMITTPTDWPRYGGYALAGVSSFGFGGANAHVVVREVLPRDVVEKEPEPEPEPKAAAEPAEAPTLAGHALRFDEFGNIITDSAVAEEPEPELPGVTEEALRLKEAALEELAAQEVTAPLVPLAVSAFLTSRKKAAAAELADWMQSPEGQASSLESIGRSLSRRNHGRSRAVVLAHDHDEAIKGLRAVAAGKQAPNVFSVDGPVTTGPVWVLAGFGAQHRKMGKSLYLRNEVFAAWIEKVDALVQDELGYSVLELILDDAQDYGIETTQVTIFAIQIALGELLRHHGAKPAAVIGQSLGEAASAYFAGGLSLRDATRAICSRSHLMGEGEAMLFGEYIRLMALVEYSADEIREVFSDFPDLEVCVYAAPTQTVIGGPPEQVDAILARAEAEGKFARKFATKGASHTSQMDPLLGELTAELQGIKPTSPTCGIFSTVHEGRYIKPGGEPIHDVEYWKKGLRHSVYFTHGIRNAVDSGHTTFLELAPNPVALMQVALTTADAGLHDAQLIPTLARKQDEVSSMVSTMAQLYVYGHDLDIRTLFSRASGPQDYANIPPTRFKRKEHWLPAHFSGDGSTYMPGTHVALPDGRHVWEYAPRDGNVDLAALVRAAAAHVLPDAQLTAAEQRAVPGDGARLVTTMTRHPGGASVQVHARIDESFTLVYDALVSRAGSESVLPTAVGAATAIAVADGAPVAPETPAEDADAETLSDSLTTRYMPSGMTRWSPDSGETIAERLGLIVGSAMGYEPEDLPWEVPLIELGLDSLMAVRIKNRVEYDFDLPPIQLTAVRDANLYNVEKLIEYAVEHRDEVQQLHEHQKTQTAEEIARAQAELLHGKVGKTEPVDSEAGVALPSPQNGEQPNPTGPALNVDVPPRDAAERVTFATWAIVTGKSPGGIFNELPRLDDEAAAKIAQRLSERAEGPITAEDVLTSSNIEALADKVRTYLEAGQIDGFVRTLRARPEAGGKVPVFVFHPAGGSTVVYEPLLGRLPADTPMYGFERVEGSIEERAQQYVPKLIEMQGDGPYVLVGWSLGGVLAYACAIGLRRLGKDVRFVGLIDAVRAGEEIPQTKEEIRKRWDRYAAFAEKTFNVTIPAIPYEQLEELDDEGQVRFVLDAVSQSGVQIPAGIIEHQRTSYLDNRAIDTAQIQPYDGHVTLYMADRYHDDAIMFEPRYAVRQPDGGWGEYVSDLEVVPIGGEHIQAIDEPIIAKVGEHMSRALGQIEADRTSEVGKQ

The values are deposited in ChEMBL (CHEMBL3988442, “University of Dundee, Small-Polar-MMV Screening Library” (2021)).

Values are the deposited “Percent Effect”, in %. The controls that fix the scale are not given in the record; negative values are as filed. The compounds are a random part of those screened. A dash means the value is not listed here; it may have been measured.

LiHisRS: 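Enzyme assay of histidyl-tRNA synthetase; the read-out is not stated. Target: Histidine-tRNA ligase, Leishmania infantum (UniProt A4I591). Concentration: 30 µM. Direction is inferred from retests: higher values go with stronger inhibition. The assay is labelled LdHisRS but filed under L. infantum. Size under these conditions: about 69,000 compounds, about 410 of them at 50% or above in at least one test.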
Pks13 thioesterase: 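Polyketide synthase Pks13, Mycobacterium tuberculosis (UniProt I6X8D2). Enzyme assay of the thioesterase domain of polyketide synthase 13; the read-out is not stated. Concentration: 30 µM. The record gives no direction; the compounds picked for IC50 retests had high values, so higher reads as stronger inhibition. Of about 67,000 compounds tested this way, about 300 (0.46%) reached 50% or more in at least one test.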

SMILES	LiHisRS	Pks13 thioesterase
CCCN(C(=O)c1csnn1)C1CCCN(Cc2ccccc2)C1 (stereo not drawn)	-24.66%	-26.76%
O=C1NCCN1C1CCN(CCOc2cccc3ccccc23)CC1	31.19%	-13.19%
COc1ccc(Cc2nnc(NC(=O)C3CC34CCC4)s2)cc1OC (stereo not drawn)	8.392%	-20.97%
CCS(=O)(=O)N1CCC2(CC1)CN(C(=O)N(C)C)Cc1ccccc12	1.942%	-10.22%
O=C(Cc1ccsc1)N1C[C@@H]2C[C@@H](c3nnc(C4CC4)o3)O[C@@H]2C1	-1.754%	4.077%
Cc1csc(NC(=O)CN2CCC(c3ccnn3CCO)CC2)n1	-10.11%	-18.51%
CCS(=O)(=O)N1CCCCC1c1nc(C(C)C)no1 (stereo not drawn)	18.52%	-23.19%
Cc1noc(C)c1CN(C)C(=O)NC1CCN(c2ncccn2)CC1	8.511%	-15.03%
O=C(c1cnc(-c2ccccn2)s1)N1CCCC1Cn1cccn1 (stereo not drawn)	12.28%	-5.853%
CN(c1ncccc1CNCc1ncc[nH]1)C1CCCCC1	18.99%	-48.69%
CC(c1ccon1)N(C)S(=O)(=O)NCc1ccccc1 (stereo not drawn)	10.59%	-12.27%
CN(C)c1ccc(CNC(=O)NCCc2cn3ccccc3n2)cn1	8.772%	0.125%
c1ccc(CN2C[C@H]3CCC[C@@]3(COCC3CCOCC3)C2)nc1	7.018%	-22.56%
Cc1nc(CN(C)C2CCN(CCCOc3ccccc3C)C2)no1 (stereo not drawn)	11.97%	-18.48%
Oc1cc(CCC2CCCCN2)cc(-c2ccncc2)c1 (stereo not drawn)	7.692%	-15.49%
CCN(CC)S(=O)(=O)NC1CCN(c2ccc(OC)cc2)CC1	11.4%	-30.15%
CC(C)(C)c1ncc(S(C)(=O)=O)c(C2CCCNC2)n1 (stereo not drawn)	17.65%	-12.25%
CN(Cc1n[nH]c2c1CCCC2)C(=O)c1cccc(CCC(C)(C)O)c1	9.375%	-2.3%
Cn1ccc(N2CCCC(NC(=O)c3ccc(Cl)o3)C2=O)n1 (stereo not drawn)	1.961%	-2.551%
Cc1cccc2nc(C(=O)N3CCCC[C@]4(C)NC(=O)CC[C@H]34)cn12	-1.053%	2.752%
CC(NC(=O)NCCN1CCCCCC1=O)c1ccc(Cl)s1 (stereo not drawn)	7.018%	-7.27%
Cn1ccc(C(=O)N2CCC(c3cc(CCO)n(C)n3)C2)n1 (stereo not drawn)	5.714%	-14.32%
O=C(NCc1cn2cccnc2n1)C1CC(=O)N(Cc2cccnc2)C1 (stereo not drawn)	12.5%	24.26%
Cc1cnn(CCNCc2ccc(OCc3cscn3)cc2)c1	13.39%	-
COC(=O)Cn1c(=O)nc2n1C(=O)N(c1ccccc1)C2	7.619%	-2.196%
Cc1cc(N2CCN(Cc3ccc(C)o3)CC2)cc(C)n1	24.27%	-6.736%
COc1ccc(C2CCCN2c2nnc(C)s2)c(OC)c1 (stereo not drawn)	6.25%	-45.55%
Cc1ccccc1OCC1CCCN(C(=O)Cc2c[nH]c(=O)[nH]c2=O)C1 (stereo not drawn)	0%	15.8%
OCc1ccc(CN2CCC(n3cc(-c4ccc(F)cc4)nn3)CC2)o1	0%	-5.206%
Cn1ccnc1CN1CCC2(CC(=O)N(c3cccc(F)c3)C2)C1 (stereo not drawn)	14.56%	-9.304%
Cc1nc(CN2CCCC(NCc3cnc(C(C)(C)C)s3)C2)no1 (stereo not drawn)	12.73%	-11.37%
CCc1ccc(CN2CCC3(CC2)CNC(=O)CO3)o1	5.769%	1.207%
N#Cc1nccnc1NC1CCN(c2ccccc2OC(F)F)C1 (stereo not drawn)	19.33%	-4.569%
Cc1noc(C)c1-c1cncc(C2CCCN2Cc2ncc[nH]2)n1 (stereo not drawn)	14%	-0.7642%
O=C(c1ccc(F)cc1)N1CC[C@H]2[C@H]1CCN2CC1CCOCC1	13%	-4.059%
COC(=O)c1cccc(C(=O)N2CCN(c3cc(Cl)ccc3C)CC2)n1	20.22%	-16.74%
O=C(CCO)N[C@H]1CN(CC2CCC2)C[C@@H]1c1ccccc1	10%	-5.058%
O=C(Nc1cnn(CC(=O)N2CCCO2)c1)c1ccccc1	18.31%	2.839%
Fc1cccnc1O[C@@H]1CC[C@H]2[C@H]1OCCN2Cc1nccs1	34.29%	-29.97%
Fc1cnc(N2C[C@@H](OCC3CCOCC3)[C@H]3OCCC[C@H]32)nc1	-13.51%	-17.05%
O=C(c1ccc2c(c1)COC2)N1CCC(Nc2cccnn2)CC1	21.92%	-4.538%
CS(=O)(=O)N1CC[C@@H]2[C@@H](CCC(=O)N2CCC2=CCCCC2)C1	6.25%	4.71%
CCCNC(=O)CNc1cc(C(=O)NCC(F)(F)F)cc(F)c1C	18.75%	48.54%
O=C(Nc1cccnc1N1CCSCC1)c1ccc2c(c1)CCO2	4.819%	-1.387%
CC(C)COC(=O)N1CC(=O)N(Cc2ccc(Cl)cc2)CC(O)C1 (stereo not drawn)	18.37%	3.12%
O=C(NCC1(O)COCCN(Cc2cccc(O)c2)C1)c1ccccn1 (stereo not drawn)	14.08%	8.8%
Cc1c(C(=O)N2CCC2(C)C)nnn1-c1cccc2cnccc12	2.679%	-5.68%
CN(C(=O)c1cccc(NCc2cccs2)c1)C(C1CC1)C1CC1	22.38%	-34.4%
Cc1nc(N2CCN(C)CC2)ncc1C(=O)N1CCCCC1	17.81%	-14.11%
CN1CCN(C2CCN(Cc3ccc(Cl)s3)CC2)C1=O	12.7%	-33.87%
CNc1cc(N2CCCC2CNCc2ccc(C)o2)ncn1 (stereo not drawn)	31.76%	-16.52%
O=S(=O)(Cc1ccccc1F)NCCN1CCOCC1	10.68%	-11.66%
CN1C[C@@H]2CN(C(=O)C3CC=CC3)C[C@@H]2C1=O	22.37%	-9.959%
Cc1nn(C)c(C)c1NC(=O)CN1CCCC1c1noc(C(C)C)n1 (stereo not drawn)	8.065%	3.349%
Cn1ncc2c1CN(Cc1cccnc1)CC2COCC1CC1 (stereo not drawn)	11.43%	60.45%
CSCC1CCN(C(=O)c2ccccc2NCc2cccnc2)C1 (stereo not drawn)	10.2%	-23.95%
Cn1cc(CC2CCN(C(=O)NCc3cccc(C#N)c3)C2)cn1 (stereo not drawn)	14.68%	-23.7%
Fc1ccc(-c2nnc(CN3CCn4c(nnc4C4CC4)C3)o2)cc1	12.16%	-8.666%
CC(C)N(C)S(=O)(=O)c1ccc2c(c1)CCN(C(=O)c1ccccn1)C2	46.99%	12.24%
Fc1ccccc1-c1noc2c1CN(CCN1CCOCC1)CC2	8.434%	-3.367%
Cc1cccc(CN2CCOC3(COCCN(CCN(C)C)C3)C2)n1 (stereo not drawn)	7%	5.843%
Cc1cnn(CCNCC(O)COc2ccc(Cl)cc2)c1 (stereo not drawn)	-3.371%	-31.42%
O=C(NC[C@]12COC[C@H]1CN(Cc1cccc(F)c1)C2)c1ccco1	23%	-10.2%
CCNC(=O)c1ccc(CNCc2c(C)nn(C)c2N(C)C)cc1	28.38%	-19.13%
CSCC(=O)NC1(c2cccc(Cl)c2)CC1	19.1%	-9.954%
Cc1csc(-c2ccc(NC(=O)N3CCOCC3)cc2)n1	17.14%	-33.93%
O=C(Cc1ccon1)Nc1cncc(Br)c1O	18.33%	-46.92%
CC(C)COC(=O)N1CCCN(C(=O)c2ccnc(N(C)C)c2)CC1	18.28%	5.542%
O=C(CN1CCCNC1=O)N1CCCC(c2nccs2)C1 (stereo not drawn)	9.333%	-31.9%
NC(=O)c1ccc(N2CCCCC2)c(NC(=O)c2cncc(Br)c2)c1	25.47%	-13.41%
O=C(COc1ccccc1F)N1CCCCC1c1ccn2ccnc2n1 (stereo not drawn)	2.062%	-5.495%
CC(C)C(=O)N1CCC12CCCN(C(=O)c1ccccc1)C2 (stereo not drawn)	15.79%	34.06%

Once more, the final 9:

- CCNC(=O)c1ccc(CNCc2c(C)nn(C)c2N(C)C)cc1 | LiHisRS: 28.38%; Pks13 thioesterase: -19.13%
- CSCC(=O)NC1(c2cccc(Cl)c2)CC1 | LiHisRS: 19.1%; Pks13 thioesterase: -9.954%
- Cc1csc(-c2ccc(NC(=O)N3CCOCC3)cc2)n1 | LiHisRS: 17.14%; Pks13 thioesterase: -33.93%
- O=C(Cc1ccon1)Nc1cncc(Br)c1O | LiHisRS: 18.33%; Pks13 thioesterase: -46.92%
- CC(C)COC(=O)N1CCCN(C(=O)c2ccnc(N(C)C)c2)CC1 | LiHisRS: 18.28%; Pks13 thioesterase: 5.542%
- O=C(CN1CCCNC1=O)N1CCCC(c2nccs2)C1 (stereo not drawn) | LiHisRS: 9.333%; Pks13 thioesterase: -31.9%
- NC(=O)c1ccc(N2CCCCC2)c(NC(=O)c2cncc(Br)c2)c1 | LiHisRS: 25.47%; Pks13 thioesterase: -13.41%
- O=C(COc1ccccc1F)N1CCCCC1c1ccn2ccnc2n1 (stereo not drawn) | LiHisRS: 2.062%; Pks13 thioesterase: -5.495%
- CC(C)C(=O)N1CCC12CCCN(C(=O)c1ccccc1)C2 (stereo not drawn) | LiHisRS: 15.79%; Pks13 thioesterase: 34.06%